The target in experiment [1] is T1, TAMRA-9J10Min peptide (5-TAMRA-GRRRN(p-Serine)N-acid) (Streptomyces avermitilis).
T1 sequence (peptide, 5-TAMRA on the N-terminus; phosphoserine at 6 (Ser94 of 9J10); C-terminal acid): GRRRNSN
Put plainly: fluorescence polarisation; competition: unlabelled 9J10 peptide titrated against 10 nM TAMRA-p9J10Min bound to 1.5 μM His-14-3-3ε; 10 mM HEPES, 150 mM NaCl, 0.05% Tween; both purified.

Experiment [2] concerns the target FLAG-tagged 14-3-3ε (human).
For experiment [3], the target named is C-terminally truncated 14-3-3ε (amino acids 1-232) (human). Put plainly: crystal structure; 14-3-3ε (1-232) incubated with TAMRA-9J10 peptide at 1:2; 28% PEG 400, 0.1 M Hepes pH 7.5, 0.2 M calcium chloride; 3.16 Å; both purified.
Experiment [4] has as its target 6x His-14-3-3ε (full length human 14-3-3ε) (human). Put plainly: STD-NMR; 100 μM 9J10 peptide and 10 μM 14-3-3ε in D2O, 298 K; also with 2% DMSO or CU7218; both purified.

Results are given in words; binding and its absence hold for the method and conditions named. A result given as binding can be weak or reduced; the word gives no strength. For some of these results: Tags and fused reporters may be left off the sequences shown. For some of these results: In cells and extracts the contact can be indirect.

With “6x His-14-3-3ε (full length human 14-3-3ε)”, the binding entry in experiment [1] was “binds”.

B1: 14-3-3γ (endogenous) (protein, UniProt P61981 1-247)
chain: MVDREQLVQKARLAEQAERYDDMAAAMKNVTELNEPLSNEERNLLSVAYKNVVGARRSSWRVISSIEQKTSADGNEKKIEMVRAYREKIEKELEAVCQDVLSLLDNYLIKNCSETQYESKVFYLKMKGDYYRYLAEVATGEKRATVVESSEKAYSEAHEISKEHMQPTHPIRLGLALNYSVFYYEIQNAPEQACHLAKTAFDDAIAELDTLNEDSYKDSTLIMQLLRDNLTLWTSDQQDDDGGEGNN
With B1, in experiment [2], the binding entry was “binds”. Turning to LNRTPGRRRNSN (5-TAMRA on the N-terminus; phosphoserine at 11 (Ser94 of 9J10); C-terminal acid) [TAMRA-9J10 peptide (5-TAMRA-…(p-Serine)N-acid)], the binding entry in experiment [3] is “binds”.

On to LNRTPGRRRNSN (phosphoserine at 11 (Ser94 of 9J10); C-terminal acid) [Unlabelled 9J10 peptide (…(p-Serine)N-acid)], for which the binding entry in experiment [4] was “binds”.

These data come from PMC8610377, “Target identification for small-molecule discovery in the FOXO3a tumor-suppressor pathway using a biodiverse peptide library” (Cell Chemical Biology, 2021).
